# Data reported in US20240123070A1, “EPITOPE PEPTIDE OF RAS G13D MUTANT AND T CELL RECEPTOR RECOGNIZING RAS G13D MUTANT” (SHANGHAI GENBASE BIOTECHNOLOGY CO., LTD., priority 2021, published 2024).
# Changes are numbered by the printed parent chain.
# B1: β95Q-I: B8.2.4 TCR point mutant, Vβ-CDR3 95Q to I; CDR3β ASSITVPPQH (protein)
# TCR alpha: AQKITQTQPGMFVQEKEAVTLDCTYDTSDPSYGLFWYKQPSSGEMIFLIYQGSYDQQNATEGRYSLNFQKARKSANLVISASQLGDSAMYFCAMRERTGTASKLTFGTGTRLQVTLDIQNPEPAVYQLKDPRSQDSTLCLFTDFDSQINVPKTMESGTFITDKTVLDMKAMDSKSNGAIAWSNQTSFTCQDIFKETNATYPSSDVPCDATLTEKSFETDMNLNFQNLSVMGLRILLLKVAGFNLLMTLRLWSS
# TCR beta: DVKVTQSSRYLVKRTGEKVFLECVQDMDHENMFWYRQDPGLGLRLIYFSYDVKMKEKGDIPEGYSVSREKKERFSLILESASTNQTSMYLCASSITVPPQHFGDGTRLSILEDLRNVTPPKVSLFEPSKAEIANKQKATLVCLARGFFPDHVELSWWVNGKEVHSGVSTDPQAYKESNYSYCLSSRLRVSATFWHNPRNHFRCQVQFHGLSEEDKWPEGSPKPVTQNISAEAWGRADCGITSASYQQGVLSATILYEILLGKATLYAVLVSTLVVMAMVKRKNS
# B2: β95Q-K: B8.2.4 TCR point mutant, Vβ-CDR3 95Q to K (protein)
# TCR alpha: B1 TCR alpha
# TCR beta: B1 TCR beta with I95K
# B3: β95Q-L: B8.2.4 TCR point mutant, Vβ-CDR3 95Q to L; CDR3β ASSLTVPPQH (protein)
# TCR alpha: B1 TCR alpha
# TCR beta: B1 TCR beta with I95L
# B4: β95Q-M: B8.2.4 TCR point mutant, Vβ-CDR3 95Q to M; CDR3β ASSMTVPPQH (protein)
# TCR alpha: B1 TCR alpha
# TCR beta: B1 TCR beta with I95M
# B5: β95Q-N: B8.2.4 TCR point mutant, Vβ-CDR3 95Q to N; CDR3β ASSNTVPPQH (protein)
# TCR alpha: B1 TCR alpha
# TCR beta: B1 TCR beta with I95N
# B6: β95Q-P: B8.2.4 TCR point mutant, Vβ-CDR3 95Q to P (protein)
# TCR alpha: B1 TCR alpha
# TCR beta: B1 TCR beta with I95P
# B7: β95Q-R: B8.2.4 TCR point mutant, Vβ-CDR3 95Q to R (protein)
# TCR alpha: B1 TCR alpha
# TCR beta: B1 TCR beta with I95R
# B8: β95Q-S: B8.2.4 TCR point mutant, Vβ-CDR3 95Q to S; CDR3β ASSSTVPPQH (protein)
# TCR alpha: B1 TCR alpha
# TCR beta: B1 TCR beta with I95S
# B9: β95Q-T: B8.2.4 TCR point mutant, Vβ-CDR3 95Q to T; CDR3β ASSTTVPPQH (protein)
# TCR alpha: B1 TCR alpha
# TCR beta: B1 TCR beta with I95T
# B10: β95Q-V: B8.2.4 TCR point mutant, Vβ-CDR3 95Q to V; CDR3β ASSVTVPPQH (protein)
# TCR alpha: B1 TCR alpha
# TCR beta: B1 TCR beta with I95V
# B11: β95Q-W: B8.2.4 TCR point mutant, Vβ-CDR3 95Q to W; CDR3β ASSWTVPPQH (protein)
# TCR alpha: B1 TCR alpha
# TCR beta: B1 TCR beta with I95W
# Test system: murine TCRβ constant region
# Experiment: mTCRβ expression detection on Jurkat-NFAT-Luc cells
# Assay type: cell-based
# Details: TCR mutant transduced Jurkat-NFAT-Luc cells
row,Molecule,mTCRβ % [%]
1,B1,75.6
2,B2,73.7
3,B3,68.6
4,B4,82.1
5,B5,75.1
6,B6,76.8
7,B7,73.6
8,B8,77.3
9,B9,66.8
10,B10,62.7
11,B11,78.2
